In paper PMC10136674:
Construct, isoform or probe ends are uncertain for at least one entry. A negative result means that nothing was seen under these conditions. At least one verdict rests on a figure or table, not on a statement of the authors.

These sequences were tested on GST-FtbZIP85 (Fagopyrum tataricum) (assay: EMSA). Conditions: Thermo Scientific EMSA kit 20148; pH and temperature not stated; recombinant protein; protein details: N-terminal GST.

Row | Sequence | binding result
1 | ATGAAACGGCCACCAGAATCTTACGTGGTCTACCGTCCGCTTCAC (double strand) [BZIP1] | no binding
2 | ATGAAATTGCTACTAGAATCTTATTTGTTCTACTTTCTTCTTCAC (double strand) [mBZIP1] | no binding
3 | CAGCACACGTGCTACCAGTCCATAATCACGTGCCTAAATCTTCCACAGC (double strand) [BZIP3] | binds
4 | CCGTATCTACAACAACAACGTGTATATATTAATTCTACCGTCCACACCAAA (double strand) [BZIP4] | binds
5 | TATATATCTAACAAGTAAATCTAAGTACAAACACCTAA (double strand) [BZIP2] | no binding
6 | TATATATTTAACAATTAAATATAAGTATAAACACTTAA (double strand) [mBZIP2] | no binding
